Publication PMC12370185
The list shows a part of the results. For part of these data: At the low end of the ranking the order means little.

How the values were obtained:
Conditions in all cases: 10 mM Tris-Cl pH 7.5, 50 mM NaCl, 1 mM DTT, 0.25 mg/ml BSA, 2 mM MgCl2, 0.025% Nonidet P-40, 5% glycerol; 28 nM nucleosome library; 10 min on ice then 30 min …; high values mean tight binding; double strand, one strand shown
[1] = tested on: SOX2 + histone octamer; assay: EMSA with sequencing
[2] = tested on: c-MYC + MAX + histone octamer; assay: EMSA with sequencing
[3] = tested on: KLF4 + histone octamer; assay: EMSA with sequencing
[4] = tested on: OCT4 + histone octamer; assay: Pioneer-seq (competitive nucleosome EMSA with sequencing)
[5] = tested on: SOX2 + histone octamer; assay: as above
[6] = tested on: c-MYC + MAX + histone octamer; assay: as above
[7] = tested on: KLF4 + histone octamer; assay: as above
[8] = tested on: OCT4 + histone octamer; assay: EMSA with sequencing

GATGGACCCTATACGCGGCGCTTTAGAAATGAATTAAACTCGGTGGAACATTGAATGAGAGTTCACCATTACAATGAGGTACATTTACAATGTTAACAAATGAGGATAAACAGTGATACTTCCCTTTGTGTTATGGGGAGGGGGGCGGGCAAGTGAATGGCCAGGAGCCAAAGGTGGAGGAGAGACATGCTTTTCACAATGTATTCTGATTGCCAGTCGGATAGTGTTCC
binding signal (log2 relative supershift) [1]: 1.54 | binding signal (log2 relative supershift) [2]: 0.369

GATGGACCCTATACGCGGCCCCCAGACCAAGGGCCAACAGGCCCCAGCCTGTACCTCTCAGCTGGGTCCCAGTGAACTTGGGCCTCCAAGGGGCCTTCCCCAGGCACCAGGGGAGGGCAGAGGGCAGGGCTGGGCCTGGACTTGCAGGATGCTCAACAGAGTTTGCCCTACCTAATTCCCACACCCCTCCTCTTGTACTCTTTCCCATCTTGCCAGTCGGATAGTGTTCC
binding signal (log2 relative supershift) [3]: 2.27 | binding signal (log2 relative supershift) [4]: -0.679 | binding signal (log2 relative supershift) [5]: -0.229 | binding signal (log2 relative supershift) [6]: -0.303

GATGGACCCTATACGCGGCGAACAATCAAGAGCTGTTTCTCTTTGCTCTTCCTCATAGCCATGCTGGAGGCATTCATAGGCACATCCTGGTGGAGGGTGATTTGGGTGGGTAGGAATGGACTTGTTCTGTTGACATTGGCATGAAAGGACTAGAGTGCATCCATCATTCTATGGGTATTTAATGGGCCCTATGTTGAGCTGTGTTCTGGTTGCCAGTCGGATAGTGTTCC
binding signal (log2 relative supershift) [1]: 1.5 | binding signal (log2 relative supershift) [2]: 0.29 | binding signal (log2 relative supershift) [7]: -0.126 | binding signal (log2 relative supershift) [4]: -0.399

GATGGACCCTATACGCGGCTAAAGTCCTTCAACATGTGAACAGACACTGTTTCTGAGGCTGTCACACACATGCAGGGAAAAGGATTTACCTTACAAAACAATGTTGCTTTGATAATACCACATCTGCAACCCTAATTGTGCCTTTGTAGCAAGTTGGTTTGGCCATTGGTCATCCTCCACAGCACTGCAATTTATCCTCCAGGAACACATTGCCAGTCGGATAGTGTTCC
binding signal (log2 relative supershift) [8]: 0.0137 | binding signal (log2 relative supershift) [1]: 0.688 | binding signal (log2 relative supershift) [2]: 0.703 | binding signal (log2 relative supershift) [7]: -0.209

GATGGACCCTATACGCGGCTGTGAAATAACCTGCATTAGAATTACCTGGTGGACAACACATATTAACAATGCATATTCTGAGTCCTCAAAGAACTATCAAATAAGAATCTTTGAGGTGGGGCTACACAATCTCCATCACTGGCAAGCACTCCCAGTACTTCTTATGCACATTACAATTCAAGAACCACTCATGGCTCACATAACTGCTCATGCCAGTCGGATAGTGTTCC
binding signal (log2 relative supershift) [8]: 0.464 | binding signal (log2 relative supershift) [1]: 0.962 | binding signal (log2 relative supershift) [2]: 0.2 | binding signal (log2 relative supershift) [7]: -0.0652

GATGGACCCTATACGCGGCTTCTCTTTCTCCCTGCCTCCACCAGCCCAGACCCCACCCCACCTCCTGTAAACCAGGGGCAGCAGGGGAGGGACGCTTTGCAGAGCAGTGCAAGTACAGACAAGTGCGTCGCTGAATCTGTGATCAGTGCTGGGGGCCCCTCAGGGCTGCCTGTACCTGGGTGGGGTGGGACATCACCAGCCCATAGCCCATGCCAGTCGGATAGTGTTCC
binding signal (log2 relative supershift) [3]: 3.69 | binding signal (log2 relative supershift) [4]: -0.244 | binding signal (log2 relative supershift) [5]: -0.699 | binding signal (log2 relative supershift) [6]: -0.0361

GATGGACCCTATACGCGGCTTTTAAAAATCAATGGCTGATAATACTGTTATCTGTGGTTATACAGCTGATACCAGCATTAAGGACCAAGGTGTCTGTACTAGTGTTTGTATTGCAGGAGGTGGAGAGCGAACAATACCATGAAAAGCAACAAGTTCCTGTGTGCTGCTATATTTGGATAAGAGAGGAAGAATGAGATGGAGGGACTTGTTTGCCAGTCGGATAGTGTTCC
binding signal (log2 relative supershift) [1]: 0.992 | binding signal (log2 relative supershift) [7]: -0.182 | binding signal (log2 relative supershift) [4]: -0.404 | binding signal (log2 relative supershift) [6]: -0.112

GATGGACCCTATACGCGGCCGTGCCTGGAGCTTGGAATTCAGGCCAGAAACCACCAGTGGACACCAGCATTCCACACTCACTGCACAGGCTGGGGCTCAAACCAAGGCCCAGGGACAGGAAGGGACAAGCCCCAGCCCCAGCCGGACTCCCAGCCCACACAAACCATCAGGGCTTGTTTCCTGCTCCATGGAAGCCTCAGACATGTTTCATGCCAGTCGGATAGTGTTCC
binding signal (log2 relative supershift) [3]: 0.561 | binding signal (log2 relative supershift) [4]: -0.431 | binding signal (log2 relative supershift) [5]: -0.695 | binding signal (log2 relative supershift) [6]: -0.181

GATGGACCCTATACGCGGCACACATCAGGAAAGATGGCAAGCAGAACGAGAACTAGTGCTACAAAAAGTGATCTCACTGTAACAGCATGGGTGGGCCTGGAAGTCAGTTCTCATGCAACCCCATTAGTTCTAGAAAGTTCTCATATGACTAAGAAAAAGCTGACAGGAATCAAACAGATTTCATCATTAAGCAAACAGAAAACATCAAGTTGCCAGTCGGATAGTGTTCC
binding signal (log2 relative supershift) [1]: 0.0172 | binding signal (log2 relative supershift) [7]: -0.591 | binding signal (log2 relative supershift) [4]: -0.486 | binding signal (log2 relative supershift) [6]: -0.331

GATGGACCCTATACGCGGCTACCAGAGACTGGACAATTTACAAAAGAAAGTGATTTATTGGACTTAACAGTTCCATGTGGCTGGGGAGGCCTCACAATCACAGTGGAAGGTGAAAGGCAAAAGGCACATCGCACATGGTGGCAGACAGGAGAACAGAGCTTGTGCAGGGAGAATGCCCTTTTACATCATATCTCAAGAGACATATTCACTTGCCAGTCGGATAGTGTTCC
binding signal (log2 relative supershift) [1]: 1.62 | binding signal (log2 relative supershift) [2]: 0.168 | binding signal (log2 relative supershift) [7]: -0.0422 | binding signal (log2 relative supershift) [4]: -0.019

GATGGACCCTATACGCGGCACACAAACTCTTTCCCCCTTGTCCGTTTGCAGGCTCTCTCATCTGGCACCTATAGTGACACCTGCTCCTTTGAGTGGCCCCTTGCCCAGGACACAGCTGTGTTCCTTCATGGCATCATTTGTGTGCTGGCTCAGGCCAGCCTATGGTCCCTGCTCCCCAAGCCTCTCACTGAAGAGAAAGGCACTGAAAGGTGCCAGTCGGATAGTGTTCC
binding signal (log2 relative supershift) [1]: 0.512 | binding signal (log2 relative supershift) [7]: -0.059 | binding signal (log2 relative supershift) [4]: -0.626 | binding signal (log2 relative supershift) [6]: -0.104
